According to the supplement of paper PMC3334620:
In all, about 33,000 sequences were measured (“E-score (-0.5 to 0.5)”: median about -8e-05, highest 2% from about 0.23 on). The list shows a part of the results.

target: T1, Nrg2 (UniProt P38082); test: PBM E-score (8-mer binding enrichment) (E-score (-0.5 to 0.5)); higher = stronger / more preferred TF binding; conditions: protein concentration: 100 nM; construct: GST-full length
T1 sequence: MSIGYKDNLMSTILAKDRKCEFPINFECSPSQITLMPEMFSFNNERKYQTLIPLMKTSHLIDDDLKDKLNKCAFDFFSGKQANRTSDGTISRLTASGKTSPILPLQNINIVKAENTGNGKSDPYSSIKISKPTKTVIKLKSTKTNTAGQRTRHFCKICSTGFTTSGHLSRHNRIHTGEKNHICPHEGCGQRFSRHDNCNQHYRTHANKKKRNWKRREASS
Summary of the method: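 GST-tagged yeast TFs (full-length or DNA-binding domain) were made by PURExpress in vitro transcription/translation and applied at about 100-200 nM to universal all-10-mer Agilent arrays. The arrays were made double-stranded by primer extension, on fresh or once-stripped slides. Bound protein was detected with fluorescent anti-GST, and scans were normalised with masliner. Each ungapped eight-base word, pooled with its reverse complement, received an E-score (modified Wilcoxon-Mann-Whitney statistic) from the Universal PBM Analysis Suite.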

Sequence	PBM E-score
ATCTCCCA	0.18
GCATAGGA	-0.0999
ATCTTACC	-0.07
GCGCATAA	0.0999
CAGAGTAC	-0.112
CACGCATA	0.0227
AGAATCTG	0.00944
GCTAAAAA	-0.154
ACGTCTTA	-0.132
CCGCGGCC	0.128
GACGGGCC	-0.254
TAACTAAA	0.00653
CGCTGCCG	-0.168
AGCGTTTA	-0.227
TGCCTAAA	-0.045
CAACGCTG	-0.0638
AGTGCTCC	-0.213
CGAACCAC	0.0233
AACCGATT	-0.0154
GTAAATCA	0.24
AAAATGTT	-0.0675
GCTGGACC	0.0106
GAGTAATC	0.0241
ATGTATCA	0.172
AGAATCAG	0.272

Sequence	PBM E-score
CAGGCATA	0.0335
GATAGCAC	-0.0654
GACTGCTC	-0.00531
TCCCACCA	-0.206
GAAGCCGC	0.0222
CGGAACAG	-0.113
AAGTACGA	0.069
GGGACGGA	-0.165
CACACTAA	0.21
AAGGGTGA	0.0471
CCGTCTCC	-0.16
CAGGAGCG	-0.0313
GTGAGCGA	0.0524
AGGCTGAA	-0.0879
GACCGTGC	-0.0878
AGAGACCC	-0.0602
ACTCGTAT	0.0397
CTCGGGCC	-0.0126
CAATGGAC	0.0884
ACTTAACT	0.097
CTGGGCTC	-0.174
GAGCGAAA	0.127
CGAGTCCA	-0.256
CCCAGACC	-0.0336
ACCACAAC	0.129

As a short view, part of the list above:
Sequence	PBM E-score
AAGTACGA	0.069
GGGACGGA	-0.165
CACACTAA	0.21
AAGGGTGA	0.0471
CCGTCTCC	-0.16
CAGGAGCG	-0.0313
GTGAGCGA	0.0524

The list continues.

Sequence	PBM E-score
ATTTAGCG	-0.0848
GACTGCTA	-0.0675
CCGCCCAG	-0.0404
ACTGCATA	0.0348
TTAGCCAA	0.0804
TAACAGAA	0.0398
CGCACCCC	-0.0111
CGTTCGCA	-0.166
CCGGGTAG	0.0243
CGTAACGA	-0.0604
ACTGCGGC	-0.0944
GCTGGGAA	-0.00487
ATCTCTCA	0.236
TAAGTGTA	-0.108
CTCCCAGC	-0.0587
CCTTTATC	-0.231
TAAGGATA	0.0535
ATTATTCA	0.23
CATTTTGA	0.0224
CGCTTAAA	0.152
CGACCCCG	-0.186
AGACTACG	-0.254
AAATATAG	0.0725
GCATACAC	0.0177
GAGGCTCA	-0.234

Sequence	PBM E-score
CAGTGTAC	-0.0892
TAACAATA	0.132
ACGGCCAC	-0.0448
ATGGTTGA	0.0416
CACAACTA	0.175
CTCACAAA	0.164
AATTCAGG	0.336
CGCGTGGC	-0.123
GGTGCTAA	-0.0231
AATCAATG	0.137
AATCTACG	-0.0979
GTGTGAGA	0.0143
AATGTTAG	0.0134
CACAAGCG	-0.0112
GCTCCTGA	-0.071
GAGAGAAC	-0.0345
CGCAGGGC	-0.0166
ACTGGAAT	0.0506
TATCTTCA	0.0863
CGGAATAG	-0.0394
CGGTTGCC	-0.0269
ATACTAAT	0.0959
GAAGGGTA	0.0766
GCATTGGA	-0.172
GCCATGCC	-0.00679

5 entries drawn at random from the list so far:
Sequence	PBM E-score
CCCAGACC	-0.0336
GACCGTGC	-0.0878
ACTTAACT	0.097
ACCACAAC	0.129
CACGCATA	0.0227

Following part:

Sequence	PBM E-score
CATAATAC	0.101
TCAAAGAA	-0.123
ATTCTAGC	-0.122
CAGATATG	0.159
GTGGGTTA	-0.0279
AGGCTCAC	-0.221
CACTTAAA	-0.063
AGCATTTC	0.071
GACCCCCC	-0.31
ATACTTCG	0.0594
CTTCGGAA	0.18
TAAAAGCA	-0.146
AGGCCACC	-0.0409
TCTTGGAA	0.0146
AGAATAAT	0.173
GATCTTGA	0.142
CCAACAAC	0.0219
AAGCGCCG	0.0527
GGACGAAA	0.0751
CCTCTACA	-0.167
AAAGTTGA	-0.0544
ATGTTTGG	-0.00581
ACGGCTGA	-0.0425
AATCCTCC	-0.123
CCTTCTTC	-0.147

Sequence	PBM E-score
AGCGACAC	-0.0693
AACTGTCG	0.0422
CTATCTCC	0.0511
AGCCGACA	-0.00533
TGAACGCA	0.0815
CGGTGATC	-0.118
AATCTTCG	0.119
ATAAGCAT	-0.179
CAAGATAC	0.0461
CAGGTGGG	-0.0155
ATGGAAGA	-0.0192
ATGTATAA	0.0366
AAGCGATG	0.00253
GAAAACAA	0.1
TGGGCCAA	0.0492
GGAGATTA	-0.00287
CATTACGC	0.089
ATGTGGGC	-0.0014
CACAGCTA	-0.0289
ACGGACGG	-0.231
CGATAGGA	-0.176
GCTCCAGA	-0.117
AATCCCAC	-0.0105
CGTCGCCC	-0.282
CCCCAGCC	-0.0514

Sequence	PBM E-score
CTTAACTA	0.0617
ATCTTAAG	0.173
CTAGTGAG	0.0153
CGTCTGAC	0.0122
CAGGTGGA	-0.22
TGTAACAA	0.0452
ATTCTCAG	0.0383
AACGCCCC	0.155
ATCAGAAA	-0.042
ACTTTCAT	0.0252
AATAGGGC	0.0062
CTGCGATC	0.0398
AGCTGAGC	0.00072
AAAGGCAT	0.0311
AATCCTTG	0.136
GGAGGCGA	-0.117
CCTCATTA	0.172
ATTTGCTG	0.125
TCGCCAAA	0.0791
AGTTCTCG	0.212
AATATCAC	0.0849
AAGTCAAC	0.0663
CAGCGACC	-0.128
ATACTTCA	0.0101
CAATAAGA	0.0926

Sequence	PBM E-score
ATCCCCGA	-0.0511
ACGGCTCT	-0.0838
ATCTTAAA	-0.0124
CCTTGCTA	0.133
GAGCCCCC	-0.394
CAAGCGGA	-0.141
ATACAATG	0.0698
GGGGCACC	-0.228
AACATGGC	-0.0158
AATGGGAA	-0.2
AAGAAGAT	0.0205
CGGTGAAA	0.0878
AAAGTAAA	0.0731
ATTGCATC	0.032
AGAAAGTG	0.0147
ATGAGTAA	0.0697
CTTTTCCC	-0.0167
ATCACAAC	0.017
GTACATAC	0.0406
AGAGCCTA	-0.301
AGCGCCGA	-0.137
TCTGCAAA	-0.0511
AACACGTT	-0.00172
GCAATAGA	-0.0937
ATGCTATA	-0.057

Sequence	PBM E-score
AAGAAATA	0.0598
CTCCTTTA	-0.229
GCTCCACA	-0.234
GAAAAAGC	-0.0562
CAACTGAC	-0.115
ACGAAAAG	0.0254
ACAGTTAG	0.0903
AGAGTGTG	-0.0801
GACTCGTA	-0.00023
ACACATAG	-0.0551
CAATCCAG	0.0569
CTTTACGC	-0.0944
CACTATGG	-0.147
CAAAGCGG	-0.0751
AGCGTCAT	-0.0515
CGCAACTA	0.244
CCGTTCCA	0.0247
TCTGACAA	-0.0261
AGCTATTA	0.0847

Copied from the list.
Under PBM E-score, CAAAGCGG is listed with -0.0751
Under PBM E-score, ACAGTTAG is listed with 0.0903
